# The other results are listed elsewhere or left out. The data scatter; read single values as rough.
# Sequences of proteins named here, by UniProt entry; tags and fusion partners are left off. A change or cut given only in a name is not applied to a line headed by its entry.
# UniProt Q8TD30: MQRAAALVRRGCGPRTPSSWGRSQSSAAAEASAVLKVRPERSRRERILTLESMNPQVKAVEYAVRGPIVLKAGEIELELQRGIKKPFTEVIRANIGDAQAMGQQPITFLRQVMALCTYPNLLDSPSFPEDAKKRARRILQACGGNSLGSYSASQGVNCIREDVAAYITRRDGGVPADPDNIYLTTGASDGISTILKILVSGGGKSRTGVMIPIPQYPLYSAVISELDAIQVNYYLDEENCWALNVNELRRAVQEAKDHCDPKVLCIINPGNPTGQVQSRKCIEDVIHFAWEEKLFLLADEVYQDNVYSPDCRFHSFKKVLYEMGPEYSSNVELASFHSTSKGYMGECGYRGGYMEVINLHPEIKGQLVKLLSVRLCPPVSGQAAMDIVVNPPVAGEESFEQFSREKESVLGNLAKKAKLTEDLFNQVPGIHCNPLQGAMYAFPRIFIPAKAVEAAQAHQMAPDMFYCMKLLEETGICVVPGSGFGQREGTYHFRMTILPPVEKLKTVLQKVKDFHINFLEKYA
# UniProt Q92538, whole entry, looked up: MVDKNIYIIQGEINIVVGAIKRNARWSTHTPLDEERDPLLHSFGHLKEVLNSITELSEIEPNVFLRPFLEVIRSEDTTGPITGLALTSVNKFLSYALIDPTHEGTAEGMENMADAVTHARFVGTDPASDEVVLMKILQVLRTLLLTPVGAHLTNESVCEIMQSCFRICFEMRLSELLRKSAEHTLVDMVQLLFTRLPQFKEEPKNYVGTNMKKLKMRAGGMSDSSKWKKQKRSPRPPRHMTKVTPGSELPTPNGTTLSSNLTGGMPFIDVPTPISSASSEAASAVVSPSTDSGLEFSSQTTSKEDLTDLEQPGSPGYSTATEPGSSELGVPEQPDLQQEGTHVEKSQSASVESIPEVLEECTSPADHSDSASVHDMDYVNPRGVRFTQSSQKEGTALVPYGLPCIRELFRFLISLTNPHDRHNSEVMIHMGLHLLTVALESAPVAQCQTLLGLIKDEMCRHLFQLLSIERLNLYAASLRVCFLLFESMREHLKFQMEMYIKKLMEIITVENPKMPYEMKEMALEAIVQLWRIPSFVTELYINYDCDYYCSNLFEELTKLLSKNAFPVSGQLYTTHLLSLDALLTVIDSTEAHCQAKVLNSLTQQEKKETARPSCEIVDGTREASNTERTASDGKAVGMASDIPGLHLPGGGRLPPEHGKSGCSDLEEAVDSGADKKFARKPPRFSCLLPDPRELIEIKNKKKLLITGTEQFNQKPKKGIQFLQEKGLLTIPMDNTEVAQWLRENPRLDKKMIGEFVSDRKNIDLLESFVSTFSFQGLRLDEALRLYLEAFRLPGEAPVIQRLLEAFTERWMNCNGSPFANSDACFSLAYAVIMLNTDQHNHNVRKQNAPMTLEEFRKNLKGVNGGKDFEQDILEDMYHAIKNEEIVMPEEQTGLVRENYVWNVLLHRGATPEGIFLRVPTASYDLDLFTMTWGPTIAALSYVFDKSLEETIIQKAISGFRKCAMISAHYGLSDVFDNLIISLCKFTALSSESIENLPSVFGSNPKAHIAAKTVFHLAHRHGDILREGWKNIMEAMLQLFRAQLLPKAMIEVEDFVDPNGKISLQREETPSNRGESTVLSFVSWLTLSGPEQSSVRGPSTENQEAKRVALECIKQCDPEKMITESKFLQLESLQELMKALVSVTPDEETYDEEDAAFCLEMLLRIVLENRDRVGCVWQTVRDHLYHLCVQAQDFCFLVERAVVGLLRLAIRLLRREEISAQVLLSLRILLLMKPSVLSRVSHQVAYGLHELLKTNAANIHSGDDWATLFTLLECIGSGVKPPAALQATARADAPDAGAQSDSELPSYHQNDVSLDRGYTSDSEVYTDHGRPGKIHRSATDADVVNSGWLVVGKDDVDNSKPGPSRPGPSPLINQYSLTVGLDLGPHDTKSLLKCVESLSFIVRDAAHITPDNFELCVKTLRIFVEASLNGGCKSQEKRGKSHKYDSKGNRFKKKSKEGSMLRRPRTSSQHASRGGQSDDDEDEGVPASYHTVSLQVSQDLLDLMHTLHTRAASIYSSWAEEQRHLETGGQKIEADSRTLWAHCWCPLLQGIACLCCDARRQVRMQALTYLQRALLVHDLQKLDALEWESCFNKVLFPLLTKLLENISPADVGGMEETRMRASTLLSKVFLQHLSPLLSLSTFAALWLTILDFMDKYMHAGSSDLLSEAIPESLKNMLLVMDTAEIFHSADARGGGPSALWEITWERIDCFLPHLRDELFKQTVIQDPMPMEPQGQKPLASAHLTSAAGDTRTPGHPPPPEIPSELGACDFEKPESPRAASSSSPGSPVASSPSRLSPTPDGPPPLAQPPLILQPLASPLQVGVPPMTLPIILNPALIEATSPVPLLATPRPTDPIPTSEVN
# UniProt Q14344, whole entry, looked up: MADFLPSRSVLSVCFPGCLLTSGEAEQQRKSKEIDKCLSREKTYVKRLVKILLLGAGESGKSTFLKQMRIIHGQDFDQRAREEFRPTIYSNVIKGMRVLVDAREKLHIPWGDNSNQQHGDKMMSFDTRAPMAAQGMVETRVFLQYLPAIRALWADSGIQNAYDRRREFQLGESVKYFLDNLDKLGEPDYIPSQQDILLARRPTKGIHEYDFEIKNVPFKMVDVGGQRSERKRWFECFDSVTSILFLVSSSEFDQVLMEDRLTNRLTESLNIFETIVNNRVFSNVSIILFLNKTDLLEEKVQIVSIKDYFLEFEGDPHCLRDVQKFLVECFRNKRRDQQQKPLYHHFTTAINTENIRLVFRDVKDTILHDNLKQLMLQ
# UniProt P62993: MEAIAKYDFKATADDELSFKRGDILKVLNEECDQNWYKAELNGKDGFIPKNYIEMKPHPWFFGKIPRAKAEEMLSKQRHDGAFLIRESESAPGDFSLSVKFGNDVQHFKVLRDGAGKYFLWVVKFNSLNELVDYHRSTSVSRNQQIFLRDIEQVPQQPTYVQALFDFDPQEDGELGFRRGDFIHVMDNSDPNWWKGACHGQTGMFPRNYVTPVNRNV
# UniProt Q92896: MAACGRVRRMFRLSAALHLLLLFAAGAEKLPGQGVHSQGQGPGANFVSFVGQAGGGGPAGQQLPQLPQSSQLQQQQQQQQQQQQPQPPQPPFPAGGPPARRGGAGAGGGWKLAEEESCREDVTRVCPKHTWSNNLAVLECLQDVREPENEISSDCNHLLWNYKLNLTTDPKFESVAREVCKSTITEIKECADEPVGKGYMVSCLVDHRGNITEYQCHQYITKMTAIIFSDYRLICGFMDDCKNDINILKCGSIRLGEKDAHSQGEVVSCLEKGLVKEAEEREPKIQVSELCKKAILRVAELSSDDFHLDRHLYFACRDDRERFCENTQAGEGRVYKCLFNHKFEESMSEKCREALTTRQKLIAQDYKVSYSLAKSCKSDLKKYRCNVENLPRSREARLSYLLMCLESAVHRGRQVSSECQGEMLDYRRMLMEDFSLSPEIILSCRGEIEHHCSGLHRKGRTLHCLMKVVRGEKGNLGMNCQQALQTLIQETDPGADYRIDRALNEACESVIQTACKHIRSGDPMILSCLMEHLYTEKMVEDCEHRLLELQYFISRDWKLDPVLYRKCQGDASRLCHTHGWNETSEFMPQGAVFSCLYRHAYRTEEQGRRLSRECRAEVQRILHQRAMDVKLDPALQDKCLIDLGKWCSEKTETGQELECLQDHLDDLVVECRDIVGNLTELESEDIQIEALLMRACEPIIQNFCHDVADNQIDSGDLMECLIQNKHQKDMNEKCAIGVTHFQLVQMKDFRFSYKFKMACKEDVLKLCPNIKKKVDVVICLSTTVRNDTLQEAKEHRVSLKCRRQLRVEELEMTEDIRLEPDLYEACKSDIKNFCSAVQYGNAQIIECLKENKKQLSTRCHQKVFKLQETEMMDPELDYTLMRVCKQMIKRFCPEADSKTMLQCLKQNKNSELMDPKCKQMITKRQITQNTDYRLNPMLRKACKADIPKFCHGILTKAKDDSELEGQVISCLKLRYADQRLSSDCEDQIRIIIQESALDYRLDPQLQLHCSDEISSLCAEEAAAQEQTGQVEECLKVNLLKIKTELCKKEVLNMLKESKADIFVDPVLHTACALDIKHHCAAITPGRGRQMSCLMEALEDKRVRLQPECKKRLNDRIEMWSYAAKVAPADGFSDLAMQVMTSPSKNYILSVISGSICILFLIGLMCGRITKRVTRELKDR
# UniProt Q9NVN8: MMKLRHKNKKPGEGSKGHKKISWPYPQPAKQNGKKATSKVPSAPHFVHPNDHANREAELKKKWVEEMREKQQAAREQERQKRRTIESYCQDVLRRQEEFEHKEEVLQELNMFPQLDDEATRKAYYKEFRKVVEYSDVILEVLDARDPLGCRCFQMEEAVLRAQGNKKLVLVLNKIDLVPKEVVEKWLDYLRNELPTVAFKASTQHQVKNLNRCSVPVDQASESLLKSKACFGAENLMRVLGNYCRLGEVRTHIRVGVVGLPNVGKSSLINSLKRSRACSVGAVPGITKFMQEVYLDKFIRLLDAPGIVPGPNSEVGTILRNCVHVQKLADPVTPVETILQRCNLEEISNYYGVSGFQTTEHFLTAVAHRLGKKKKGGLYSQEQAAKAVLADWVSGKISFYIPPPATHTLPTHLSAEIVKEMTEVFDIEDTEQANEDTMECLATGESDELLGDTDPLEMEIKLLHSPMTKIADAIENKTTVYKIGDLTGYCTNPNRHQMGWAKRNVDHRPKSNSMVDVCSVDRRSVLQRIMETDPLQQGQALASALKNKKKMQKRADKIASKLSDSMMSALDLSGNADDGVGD
# UniProt Q8N335: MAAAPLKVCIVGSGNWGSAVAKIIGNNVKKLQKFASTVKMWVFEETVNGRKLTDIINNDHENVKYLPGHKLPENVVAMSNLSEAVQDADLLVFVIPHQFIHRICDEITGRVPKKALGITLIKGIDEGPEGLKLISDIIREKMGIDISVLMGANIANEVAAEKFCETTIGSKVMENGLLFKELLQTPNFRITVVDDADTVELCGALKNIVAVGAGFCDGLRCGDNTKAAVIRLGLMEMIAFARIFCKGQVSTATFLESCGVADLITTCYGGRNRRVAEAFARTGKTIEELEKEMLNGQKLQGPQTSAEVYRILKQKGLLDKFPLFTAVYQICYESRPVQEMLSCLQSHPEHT
# UniProt Q08378: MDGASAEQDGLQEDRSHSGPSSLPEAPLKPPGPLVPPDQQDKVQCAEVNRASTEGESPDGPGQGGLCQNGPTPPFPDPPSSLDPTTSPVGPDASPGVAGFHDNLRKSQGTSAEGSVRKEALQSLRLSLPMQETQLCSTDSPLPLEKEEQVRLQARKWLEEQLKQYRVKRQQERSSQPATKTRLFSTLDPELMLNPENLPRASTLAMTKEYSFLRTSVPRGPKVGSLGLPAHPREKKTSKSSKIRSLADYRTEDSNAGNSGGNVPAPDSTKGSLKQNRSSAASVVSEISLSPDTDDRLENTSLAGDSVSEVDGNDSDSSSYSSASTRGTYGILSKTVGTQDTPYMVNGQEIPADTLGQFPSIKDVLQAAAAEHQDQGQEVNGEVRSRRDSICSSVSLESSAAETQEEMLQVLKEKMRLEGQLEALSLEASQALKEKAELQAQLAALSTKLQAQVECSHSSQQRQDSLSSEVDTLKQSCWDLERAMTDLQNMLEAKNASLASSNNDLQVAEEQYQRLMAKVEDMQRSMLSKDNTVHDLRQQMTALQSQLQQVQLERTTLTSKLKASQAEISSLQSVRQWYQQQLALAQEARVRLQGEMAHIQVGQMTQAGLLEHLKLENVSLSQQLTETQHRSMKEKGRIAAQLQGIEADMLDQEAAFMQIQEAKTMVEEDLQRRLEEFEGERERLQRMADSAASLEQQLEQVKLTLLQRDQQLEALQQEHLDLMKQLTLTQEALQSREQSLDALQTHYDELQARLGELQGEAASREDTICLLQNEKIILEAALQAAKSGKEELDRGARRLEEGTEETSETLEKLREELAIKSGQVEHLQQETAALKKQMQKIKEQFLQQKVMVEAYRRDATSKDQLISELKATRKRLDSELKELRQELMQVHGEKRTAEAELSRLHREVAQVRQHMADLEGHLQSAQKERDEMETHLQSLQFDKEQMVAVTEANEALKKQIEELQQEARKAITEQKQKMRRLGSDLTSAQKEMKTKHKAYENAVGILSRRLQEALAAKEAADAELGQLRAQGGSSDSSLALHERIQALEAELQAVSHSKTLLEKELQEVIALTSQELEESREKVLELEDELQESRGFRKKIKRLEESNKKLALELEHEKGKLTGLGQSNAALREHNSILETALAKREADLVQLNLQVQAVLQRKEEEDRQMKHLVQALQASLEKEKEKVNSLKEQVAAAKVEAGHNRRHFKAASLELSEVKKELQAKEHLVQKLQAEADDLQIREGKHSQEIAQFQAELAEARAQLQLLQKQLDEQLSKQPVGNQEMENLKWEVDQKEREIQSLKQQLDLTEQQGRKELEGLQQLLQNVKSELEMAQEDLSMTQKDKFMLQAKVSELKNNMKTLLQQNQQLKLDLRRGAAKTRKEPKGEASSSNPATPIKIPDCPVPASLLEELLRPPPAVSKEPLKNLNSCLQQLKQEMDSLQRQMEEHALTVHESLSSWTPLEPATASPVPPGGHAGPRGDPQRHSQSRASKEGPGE
# Compound: ClCC(=O)N[C@H]1CCCc2ccccc12
# Assay: log2 mean competition ratio of IA-DTB cysteine labelling (DMSO/compound) (log2 ratio); higher = stronger cysteine engagement by compound
# Details: 50 µM; treatment time: 4 h; cell line lysate: HEK293T
# Experimental: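 IA-DTB competitive cysteine chemoproteomics in HEK293T RIPA lysate. Lysates were treated with compound 29 or 30 at 50 or 200 µM for 4 h, then IA-DTB (500 µM, 1 h), trypsin-digested, NeutrAvidin-enriched and analysed by diaPASEF. Competition ratio = intensity DMSO / intensity compound (n=4 treated, n=64 DMSO); binding: mean log2 CR ≥ 1 and p ≤ 0.05 plus QC filters. Target is the cysteine site.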
row,Target,log2 mean competition ratio
1,GPT2 C265 (UniProt Q8TD30),0.238
2,GBF1 C1110 (UniProt Q92538),0.101
3,GNB4 C25 (UniProt Q9HAV0),0.216
4,GNA13 C329 (UniProt Q14344),0.389
5,GRB2 C32 (UniProt P62993),0.291
6,GLG1 C984 (UniProt Q92896),0.237
7,GDE1 C53 (UniProt Q9NZC3),-0.0435
8,GPC3 C65,-0.227
9,GPSM1 C616 (UniProt Q86YR5),-0.328
10,GLRX3 C229 (UniProt O76003),-0.355
11,GNL3L C518 (UniProt Q9NVN8),0.196
12,GRAMD1A C576 (UniProt Q96CP6),-0.3
13,GOLGA4 C1849 (UniProt Q13439),-0.667
14,GLG1 C419 (UniProt Q92896),0.221
15,GPD1L C202 (UniProt Q8N335),0.0177
16,GBF1 C1588 (UniProt Q92538),0.0946
17,GCC2 C297 (UniProt Q8IWJ2),-0.168
18,GDI2 C282,-0.257
19,GOLGA3 C769 (UniProt Q08378),-0.152
20,GPR180 C91 (UniProt Q86V85),-0.071

# Same assay, conditions: 200 µM; treatment time: 4 h; cell line lysate: HEK293T
row,Target,log2 mean competition ratio
1,GPT2 C265 (UniProt Q8TD30),0.00686
2,GBF1 C1110 (UniProt Q92538),0.252
3,GNB4 C25 (UniProt Q9HAV0),-0.313
4,GNA13 C329 (UniProt Q14344),-0.0121
5,GRB2 C32 (UniProt P62993),0.0896
6,GLG1 C984 (UniProt Q92896),0.717
7,GDE1 C53 (UniProt Q9NZC3),-0.144
8,GPC3 C65,-0.252
9,GPSM1 C616 (UniProt Q86YR5),-0.0206
10,GLRX3 C229 (UniProt O76003),0.199
11,GNL3L C518 (UniProt Q9NVN8),0.303
12,GRAMD1A C576 (UniProt Q96CP6),0.0878
13,GOLGA4 C1849 (UniProt Q13439),-0.062
14,GLG1 C419 (UniProt Q92896),0.286
15,GPD1L C202 (UniProt Q8N335),0.131
16,GBF1 C1588 (UniProt Q92538),-0.166
17,GCC2 C297 (UniProt Q8IWJ2),0.0781
18,GDI2 C282,0.261
19,GOLGA3 C769 (UniProt Q08378),-0.281
20,GPR180 C91 (UniProt Q86V85),-0.0224
